Results are given in words; binding and its absence hold for the method and conditions named. Binding seen in cells or lysates may run through a third protein. Some binding calls cover weakened binding; strength is not graded here. Tags and fused reporters may be left off the sequences shown.
Target: T1, His-tagged Rab7b Q67L (constitutively active mutant) (UniProt Q96AH8)
T1 sequence: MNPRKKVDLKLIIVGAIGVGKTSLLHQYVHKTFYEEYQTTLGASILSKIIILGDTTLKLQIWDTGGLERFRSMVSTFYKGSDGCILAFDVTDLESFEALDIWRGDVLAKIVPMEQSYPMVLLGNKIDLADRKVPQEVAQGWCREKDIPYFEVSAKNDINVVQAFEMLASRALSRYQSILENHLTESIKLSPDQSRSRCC
Assay: pull-down; 40 µg His–Rab fusion protein bound to Dynabeads His-Tag (cobalt-coated magnetic beads), incubated with precleared lysates from LPS-treated MDDCs for 30 min at 4°C; washed six times with 3.25 mM sodium phosphate pH 7.4, 70 mM NaCl, 0.01% Tween-20; eluted with 300 mM imidazole; western blot with anti-His and anti-TRPML1; only the target purified

The chains behind the UniProt entries cited, without tags or fusion partners.
UniProt Q9GZU1: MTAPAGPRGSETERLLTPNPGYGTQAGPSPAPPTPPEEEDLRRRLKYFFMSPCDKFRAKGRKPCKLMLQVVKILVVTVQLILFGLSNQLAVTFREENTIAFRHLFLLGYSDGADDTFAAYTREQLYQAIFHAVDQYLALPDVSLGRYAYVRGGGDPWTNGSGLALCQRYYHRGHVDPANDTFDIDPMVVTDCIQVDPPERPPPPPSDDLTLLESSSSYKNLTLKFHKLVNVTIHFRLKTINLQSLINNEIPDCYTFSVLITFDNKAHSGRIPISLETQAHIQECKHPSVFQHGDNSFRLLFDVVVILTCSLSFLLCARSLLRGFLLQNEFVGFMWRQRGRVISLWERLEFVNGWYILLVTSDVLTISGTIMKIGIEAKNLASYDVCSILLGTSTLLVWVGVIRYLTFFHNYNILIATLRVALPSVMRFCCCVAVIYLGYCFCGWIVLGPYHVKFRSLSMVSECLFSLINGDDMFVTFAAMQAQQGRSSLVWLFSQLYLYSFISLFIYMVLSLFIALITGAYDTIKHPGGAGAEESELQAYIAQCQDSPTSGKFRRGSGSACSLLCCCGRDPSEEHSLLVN

Substance: lysosomal Ca2+ channel TRPML1 (transient receptor potential cation channel, mucolipin subfamily, member 1) (from UniProt Q9GZU1 1-580)
- binding: binds
